Some of the results follow.
What was measured:
Experiment in all cases: log2 fold change, soluble protein after heating vs DMSO (PISA); higher = thermal stabilisation; K562 lysate, 10 uM; active = over 0.2 and 3.5 SD of the protein, either way, in both replicates (recomputed)
erlotinib = compound: C#Cc1cccc(Nc2ncnc3cc(OCCOC)c(OCCOC)cc23)c1 [erlotinib]
Procedure, shortened: (§1)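 Values give the log-two fold change in thermal stability against solvent controls, from duplicates. Crude K562 extract at 1 mg/mL protein, made by dounce homogenisation in PBS pH 7.4 with 1 mM MgCl2, was treated with 10 μM compound for 30 min. After 3 min heating across 48°C-58°C, aliquots were pooled, adjusted to 0.5% NP-40 at 4°C and centrifuged at 21,000xg for 90 min. The supernatant was measured by TMTpro 16plex LC-MS/MS with channel sums equalised.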

Chains of the proteins cited; added tags and fusions are not shown. Lines headed by an entry give the natural chain unless they say otherwise; changes in a name come on top.
UniProt Q9BV38: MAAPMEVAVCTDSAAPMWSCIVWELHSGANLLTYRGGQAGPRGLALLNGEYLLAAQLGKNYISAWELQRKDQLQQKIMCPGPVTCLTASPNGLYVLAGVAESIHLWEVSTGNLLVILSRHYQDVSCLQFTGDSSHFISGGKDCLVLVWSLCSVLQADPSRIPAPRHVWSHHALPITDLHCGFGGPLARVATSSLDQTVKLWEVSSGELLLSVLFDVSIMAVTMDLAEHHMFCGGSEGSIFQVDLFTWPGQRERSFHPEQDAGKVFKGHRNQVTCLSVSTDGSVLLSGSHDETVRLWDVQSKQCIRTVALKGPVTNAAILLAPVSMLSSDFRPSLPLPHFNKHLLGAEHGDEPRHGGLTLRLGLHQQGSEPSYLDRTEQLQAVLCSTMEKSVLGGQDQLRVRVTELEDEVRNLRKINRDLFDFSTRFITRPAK
UniProt Q8TF74: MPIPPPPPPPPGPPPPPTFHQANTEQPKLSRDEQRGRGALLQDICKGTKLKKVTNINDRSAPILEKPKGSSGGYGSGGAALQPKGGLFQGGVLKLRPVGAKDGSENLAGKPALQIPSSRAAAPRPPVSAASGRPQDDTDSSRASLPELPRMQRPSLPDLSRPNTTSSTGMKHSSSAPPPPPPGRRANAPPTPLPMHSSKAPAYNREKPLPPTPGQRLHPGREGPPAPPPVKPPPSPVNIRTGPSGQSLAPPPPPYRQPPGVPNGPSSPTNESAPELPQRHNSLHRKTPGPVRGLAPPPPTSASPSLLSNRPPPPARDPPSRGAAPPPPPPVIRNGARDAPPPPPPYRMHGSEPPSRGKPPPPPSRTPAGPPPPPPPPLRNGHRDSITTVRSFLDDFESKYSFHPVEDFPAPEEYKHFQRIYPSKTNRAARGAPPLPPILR
UniProt Q86VN1: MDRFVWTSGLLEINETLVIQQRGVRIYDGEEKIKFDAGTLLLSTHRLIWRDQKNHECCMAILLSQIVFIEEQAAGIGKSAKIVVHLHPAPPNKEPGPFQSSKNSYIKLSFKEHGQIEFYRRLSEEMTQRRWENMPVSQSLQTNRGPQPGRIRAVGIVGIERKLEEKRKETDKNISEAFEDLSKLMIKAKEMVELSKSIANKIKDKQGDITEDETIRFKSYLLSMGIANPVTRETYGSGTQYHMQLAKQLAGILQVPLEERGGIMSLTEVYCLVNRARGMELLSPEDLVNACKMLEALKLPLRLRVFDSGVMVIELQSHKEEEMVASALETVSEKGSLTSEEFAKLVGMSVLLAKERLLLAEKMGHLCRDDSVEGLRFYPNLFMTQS
UniProt Q9H6Y2: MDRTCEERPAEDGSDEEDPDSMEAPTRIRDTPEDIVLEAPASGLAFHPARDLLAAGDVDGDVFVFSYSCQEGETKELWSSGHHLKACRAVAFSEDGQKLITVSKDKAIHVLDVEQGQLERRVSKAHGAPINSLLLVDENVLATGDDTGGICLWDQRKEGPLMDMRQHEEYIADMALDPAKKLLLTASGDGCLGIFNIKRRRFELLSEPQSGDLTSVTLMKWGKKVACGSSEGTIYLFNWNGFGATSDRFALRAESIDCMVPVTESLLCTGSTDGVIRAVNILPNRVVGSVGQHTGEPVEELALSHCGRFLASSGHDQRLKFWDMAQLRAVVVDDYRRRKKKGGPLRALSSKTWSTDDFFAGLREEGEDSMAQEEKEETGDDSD
UniProt Q9UNX4: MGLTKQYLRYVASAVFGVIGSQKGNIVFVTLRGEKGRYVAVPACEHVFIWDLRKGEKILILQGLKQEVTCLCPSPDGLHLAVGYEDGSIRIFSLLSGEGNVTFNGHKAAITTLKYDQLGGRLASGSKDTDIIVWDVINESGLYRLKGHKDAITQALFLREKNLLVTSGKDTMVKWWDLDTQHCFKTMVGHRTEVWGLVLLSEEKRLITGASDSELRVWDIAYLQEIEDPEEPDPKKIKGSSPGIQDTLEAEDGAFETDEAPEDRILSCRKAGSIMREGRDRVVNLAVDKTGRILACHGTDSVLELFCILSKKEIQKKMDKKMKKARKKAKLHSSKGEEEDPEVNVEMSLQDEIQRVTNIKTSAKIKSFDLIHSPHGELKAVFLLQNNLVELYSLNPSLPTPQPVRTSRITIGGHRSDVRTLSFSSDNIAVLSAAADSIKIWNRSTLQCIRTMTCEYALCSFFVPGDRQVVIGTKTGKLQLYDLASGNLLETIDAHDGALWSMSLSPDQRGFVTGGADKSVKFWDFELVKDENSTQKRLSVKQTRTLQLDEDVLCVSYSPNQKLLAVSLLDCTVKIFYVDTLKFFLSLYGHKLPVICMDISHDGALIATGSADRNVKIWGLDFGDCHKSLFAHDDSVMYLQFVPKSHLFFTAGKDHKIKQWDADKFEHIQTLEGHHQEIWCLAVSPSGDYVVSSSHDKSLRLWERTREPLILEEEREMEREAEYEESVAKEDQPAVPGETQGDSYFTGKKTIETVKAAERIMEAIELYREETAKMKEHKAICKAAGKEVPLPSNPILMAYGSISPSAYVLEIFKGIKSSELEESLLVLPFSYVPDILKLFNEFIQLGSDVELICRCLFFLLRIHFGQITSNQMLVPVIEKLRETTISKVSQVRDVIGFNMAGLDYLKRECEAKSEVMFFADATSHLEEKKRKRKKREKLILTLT
UniProt Q9Y4P8: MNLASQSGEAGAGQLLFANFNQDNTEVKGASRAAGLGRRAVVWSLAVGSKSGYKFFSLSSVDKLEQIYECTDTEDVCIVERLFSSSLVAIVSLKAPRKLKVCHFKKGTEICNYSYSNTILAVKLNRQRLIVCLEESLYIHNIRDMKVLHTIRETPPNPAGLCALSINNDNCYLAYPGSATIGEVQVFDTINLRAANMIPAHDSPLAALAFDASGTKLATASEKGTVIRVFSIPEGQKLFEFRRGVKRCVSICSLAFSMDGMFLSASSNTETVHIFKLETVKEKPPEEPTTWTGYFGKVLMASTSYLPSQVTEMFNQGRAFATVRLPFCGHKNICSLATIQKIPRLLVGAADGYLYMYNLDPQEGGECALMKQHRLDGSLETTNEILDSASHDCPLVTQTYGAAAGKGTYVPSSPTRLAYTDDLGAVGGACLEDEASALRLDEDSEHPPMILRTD
UniProt Q562E7: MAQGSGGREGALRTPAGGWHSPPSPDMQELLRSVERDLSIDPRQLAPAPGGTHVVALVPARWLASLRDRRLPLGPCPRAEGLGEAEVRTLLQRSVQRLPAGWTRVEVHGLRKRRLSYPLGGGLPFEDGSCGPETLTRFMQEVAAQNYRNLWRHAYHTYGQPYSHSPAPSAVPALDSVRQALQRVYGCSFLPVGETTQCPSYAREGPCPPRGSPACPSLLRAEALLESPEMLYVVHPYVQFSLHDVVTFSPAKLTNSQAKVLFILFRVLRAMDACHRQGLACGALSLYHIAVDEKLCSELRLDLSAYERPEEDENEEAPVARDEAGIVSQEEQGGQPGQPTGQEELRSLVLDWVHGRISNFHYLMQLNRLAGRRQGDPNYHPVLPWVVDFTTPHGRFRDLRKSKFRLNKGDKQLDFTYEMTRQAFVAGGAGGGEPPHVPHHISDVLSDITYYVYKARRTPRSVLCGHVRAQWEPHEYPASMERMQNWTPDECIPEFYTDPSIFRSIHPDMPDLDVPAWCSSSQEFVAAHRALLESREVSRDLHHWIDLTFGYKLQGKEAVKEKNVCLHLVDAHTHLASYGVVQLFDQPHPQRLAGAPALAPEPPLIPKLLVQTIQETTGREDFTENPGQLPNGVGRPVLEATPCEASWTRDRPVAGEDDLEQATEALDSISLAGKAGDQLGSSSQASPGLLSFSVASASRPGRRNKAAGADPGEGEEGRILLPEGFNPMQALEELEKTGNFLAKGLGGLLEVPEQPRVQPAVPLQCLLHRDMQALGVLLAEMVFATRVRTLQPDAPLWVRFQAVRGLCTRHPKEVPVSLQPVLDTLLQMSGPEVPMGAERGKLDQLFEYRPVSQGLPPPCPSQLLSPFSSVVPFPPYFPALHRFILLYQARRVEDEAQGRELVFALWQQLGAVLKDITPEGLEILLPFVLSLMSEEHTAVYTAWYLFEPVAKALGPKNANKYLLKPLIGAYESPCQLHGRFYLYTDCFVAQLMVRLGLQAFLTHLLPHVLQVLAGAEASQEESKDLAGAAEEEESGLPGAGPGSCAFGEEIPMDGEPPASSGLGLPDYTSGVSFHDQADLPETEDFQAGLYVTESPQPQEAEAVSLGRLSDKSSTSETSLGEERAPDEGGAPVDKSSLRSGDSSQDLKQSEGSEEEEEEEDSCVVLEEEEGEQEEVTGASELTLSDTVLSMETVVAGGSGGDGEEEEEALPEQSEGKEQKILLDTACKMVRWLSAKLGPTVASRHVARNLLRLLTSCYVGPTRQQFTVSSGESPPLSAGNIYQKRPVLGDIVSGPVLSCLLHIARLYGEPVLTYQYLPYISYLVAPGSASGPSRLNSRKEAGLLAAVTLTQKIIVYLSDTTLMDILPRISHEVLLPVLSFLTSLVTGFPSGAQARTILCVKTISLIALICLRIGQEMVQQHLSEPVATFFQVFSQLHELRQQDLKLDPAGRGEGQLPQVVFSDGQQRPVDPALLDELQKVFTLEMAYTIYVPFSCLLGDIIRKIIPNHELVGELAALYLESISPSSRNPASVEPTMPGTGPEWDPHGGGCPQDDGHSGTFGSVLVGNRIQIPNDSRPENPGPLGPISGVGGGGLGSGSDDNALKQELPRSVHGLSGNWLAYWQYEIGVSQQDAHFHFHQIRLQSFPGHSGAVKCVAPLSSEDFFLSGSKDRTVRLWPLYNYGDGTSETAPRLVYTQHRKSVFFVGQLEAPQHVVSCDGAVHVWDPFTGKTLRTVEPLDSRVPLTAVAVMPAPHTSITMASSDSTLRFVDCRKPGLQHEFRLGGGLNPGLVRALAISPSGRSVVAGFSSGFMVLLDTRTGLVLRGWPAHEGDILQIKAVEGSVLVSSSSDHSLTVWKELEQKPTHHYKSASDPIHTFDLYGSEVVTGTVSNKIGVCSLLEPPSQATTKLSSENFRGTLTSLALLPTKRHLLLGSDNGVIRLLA
UniProt Q9HAD4: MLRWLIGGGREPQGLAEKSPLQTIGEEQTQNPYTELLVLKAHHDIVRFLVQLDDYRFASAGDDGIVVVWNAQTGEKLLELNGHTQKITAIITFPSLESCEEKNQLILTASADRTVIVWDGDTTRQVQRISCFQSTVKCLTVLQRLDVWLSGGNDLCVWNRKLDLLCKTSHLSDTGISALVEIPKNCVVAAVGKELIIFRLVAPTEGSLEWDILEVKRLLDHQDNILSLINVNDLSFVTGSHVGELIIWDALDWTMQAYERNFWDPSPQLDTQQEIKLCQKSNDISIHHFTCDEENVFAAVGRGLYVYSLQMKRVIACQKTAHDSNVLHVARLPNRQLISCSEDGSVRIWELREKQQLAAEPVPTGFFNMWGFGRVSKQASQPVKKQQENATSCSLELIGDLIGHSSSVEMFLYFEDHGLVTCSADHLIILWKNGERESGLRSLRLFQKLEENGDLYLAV
UniProt Q9H9H4: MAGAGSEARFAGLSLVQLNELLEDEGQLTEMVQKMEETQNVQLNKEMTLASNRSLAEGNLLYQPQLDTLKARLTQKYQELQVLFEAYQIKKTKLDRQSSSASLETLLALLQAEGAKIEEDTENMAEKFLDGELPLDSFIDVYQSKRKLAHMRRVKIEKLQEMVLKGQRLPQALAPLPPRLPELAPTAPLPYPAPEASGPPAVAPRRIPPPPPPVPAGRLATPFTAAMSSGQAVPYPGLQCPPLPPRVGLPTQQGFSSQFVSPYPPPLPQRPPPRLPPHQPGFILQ
UniProt Q15007: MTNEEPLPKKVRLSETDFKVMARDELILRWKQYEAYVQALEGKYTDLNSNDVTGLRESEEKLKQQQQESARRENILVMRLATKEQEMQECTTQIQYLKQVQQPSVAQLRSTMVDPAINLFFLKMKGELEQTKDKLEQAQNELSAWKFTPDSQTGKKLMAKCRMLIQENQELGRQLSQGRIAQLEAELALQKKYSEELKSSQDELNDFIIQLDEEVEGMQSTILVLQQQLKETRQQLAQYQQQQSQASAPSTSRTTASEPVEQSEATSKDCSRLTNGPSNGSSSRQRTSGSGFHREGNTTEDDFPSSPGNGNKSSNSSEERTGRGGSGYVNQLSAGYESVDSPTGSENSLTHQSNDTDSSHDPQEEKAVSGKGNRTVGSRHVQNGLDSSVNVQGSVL
UniProt Q3ZAQ7: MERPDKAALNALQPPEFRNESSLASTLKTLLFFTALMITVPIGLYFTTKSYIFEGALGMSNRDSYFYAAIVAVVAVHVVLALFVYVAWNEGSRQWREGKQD
UniProt Q9UK41: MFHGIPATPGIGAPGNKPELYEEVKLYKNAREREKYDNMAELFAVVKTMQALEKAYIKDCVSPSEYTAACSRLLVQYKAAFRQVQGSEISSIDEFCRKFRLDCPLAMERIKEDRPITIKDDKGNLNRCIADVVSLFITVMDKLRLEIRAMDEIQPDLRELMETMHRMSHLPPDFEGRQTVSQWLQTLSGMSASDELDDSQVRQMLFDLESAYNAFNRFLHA

[1] = compound: C/C(=N\NC(=O)C1=CC(=CC=C1)S(=O)(=O)N2CCOCC2)/C3=C(C=CC(=C3)Cl)O
Procedure, shortened: as §1

[2] = compound: C1=CC(=CC=C1C2=NC3=C(N2)C=C(C=C3)C(=O)N)OC4=CC=C(C=C4)Cl
Procedure, shortened: as §1

[3] = compound: C1=CC2=C(C=CC(=C2)/C=C\3/C(=O)NC(=NCC4=CC=CS4)S3)N=C1
Procedure, shortened: as §1

[4] = compound: C1=CC2=NC=CN=C2C=C1/C=C/3\C(=O)NC(=O)S3
Procedure, shortened: as §1

[5] = compound: C1=CC=C(C=C1)C2=NC(=C(N2)C3=CC=NC=C3)C4=CC(=C(C=C4)Cl)O
Procedure, shortened: as §1

[6] = compound: C1=CC=C2C(=C1)C3=NNC4=CC=CC(=C43)C2=O
Procedure, shortened: as §1

[7] = compound: C1CCN(C1)C(=O)NC2=CC=CC(=C2)NC3=NC=C(C(=N3)NCCC4=CN=CN4)Br
Procedure, shortened: as §1

[8] = compound: C1CN(CCC1(CC2=CC=C(C=C2)Cl)N)C3=NC=NC4=C3C=CN4
Procedure, shortened: as §1

IRAK-1-4 Inhibitor I = compound: C1COCCN1CCN2C3=CC=CC=C3N=C2NC(=O)C4=CC(=CC=C4)[N+](=O)[O-] [IRAK-1-4 Inhibitor I]
Procedure, shortened: as §1

ibrutinib = compound: C=CC(=O)N1CCC[C@@H](n2nc(-c3ccc(Oc4ccccc4)cc3)c3c(N)ncnc32)C1 [ibrutinib]
Procedure, shortened: as §1

[9] = compound: CC(=O)c1cnc2ccc(-c3cc(Cl)c(O)c(Cl)c3)nc2c1N[C@H]1CC[C@H](CN(C)C)CC1
Procedure, shortened: as §1

ralimetinib = compound: CC(C)(C)Cn1c(N)nc2ccc(-c3[nH]c(C(C)(C)C)nc3-c3ccc(F)cc3)nc21 [ralimetinib]
Procedure, shortened: as §1

[10] = compound: CC(C)(O)CC(=O)NCCn1ccc2ncnc(Nc3ccc(Oc4cccc(C(F)(F)F)c4)c(Cl)c3)c21
Procedure, shortened: as §1

[11] = compound: CC(C)C1=C2N=C(C=C(N2N=C1)NCC3=CC=CC=C3)NCCCCCCN
Procedure, shortened: as §1

[12] = compound: CC1=C(C(CC(=O)N1)C2=CC=C(C=C2)C(F)(F)F)C(=O)NC3=C(C=C4C(=C3)C=NN4)F
Procedure, shortened: as §1

[13] = compound: CC1=C(C2=C(C=C1)C(=O)C3=CC=CC=C3N2CCCN)C
Procedure, shortened: as §1

[14] = compound: CC1=C(C=C(C=C1)NC(=O)C2=CC(=CC=C2)C(C)(C)C#N)NC3=CC4=C(C=C3)N=CN(C4=O)C
Procedure, shortened: as §1

[15] = compound: CC1=C(C=C(C=C1)NC(=O)C2=CC(=CC=C2)N(C)C)NC(=O)C3=CC=C(C=C3)O
Procedure, shortened: as §1

[16] = compound: CC1=CC=C(C=C1)SC2=C3C=C(SC3=CN=C2)C(=O)N
Procedure, shortened: as §1

Measured: log2 fold change

WDR18 (UniProt Q9BV38)
inactive: erlotinib 0.018 | [1] -0.047 | [2] 0.018 | [3] -0.015 | [4] -0.003 | [5] 0.004 | [6] 0.029 | [7] -0.035 | [8] -0.023 | IRAK-1-4 Inhibitor I 0.044 | ibrutinib -0.011 | [9] 0.004 | ralimetinib 0.046 | [10] -0.001 | [11] -0.026 | [12] -0.007 | [13] -0.067 | [14] 0.027 | [15] 0.043 | [16] -0.022

WIPF2 (UniProt Q8TF74)
inactive: erlotinib -0.018 | [1] -0.021 | [2] 0.028 | [3] 0.022 | [4] -0.014 | [5] 0.016 | [6] 0.006 | [7] -0.018 | [8] 0.049 | IRAK-1-4 Inhibitor I -0.005 | ibrutinib 0.051 | [9] -0.024 | ralimetinib 0 | [10] -0.026 | [11] 0.026 | [12] 0.023 | [13] -0.005 | [14] -0.016 | [15] -0.008 | [16] 0.005

VPS36 (UniProt Q86VN1)
inactive: erlotinib -0.014 | [1] 0.008 | [2] 0.017 | [3] 0.004 | [4] -0.02 | [5] -0.006 | [6] -0.011 | [7] 0 | [8] -0.018 | IRAK-1-4 Inhibitor I 0.023 | ibrutinib -0.017 | [9] -0.007 | ralimetinib -0.014 | [10] -0.037 | [11] -0.016 | [12] -0.018 | [13] -0.006 | [14] -0.003 | [15] 0.001 | [16] 0.004

WDR55 (UniProt Q9H6Y2)
inactive: erlotinib -0.004 | [1] -0.15 | [2] -0.017 | [3] -0.008 | [4] -0.008 | [5] 0.019 | [6] 0.002 | [7] -0.022 | [8] 0.004 | IRAK-1-4 Inhibitor I -0.039 | ibrutinib 0.047 | [9] -0.027 | ralimetinib 0.039 | [10] 0.01 | [11] -0.018 | [12] -0.011 | [13] -0.04 | [14] 0 | [15] 0.022 | [16] 0.012

WDR3 (UniProt Q9UNX4)
inactive: erlotinib -0.036 | [1] -0.013 | [2] -0.044 | [3] -0.012 | [4] 0.027 | [5] -0.015 | [6] 0.026 | [7] 0.007 | [8] -0.04 | IRAK-1-4 Inhibitor I -0.02 | ibrutinib 0 | [9] 0.014 | ralimetinib 0.021 | [10] 0.025 | [11] -0.033 | [12] 0.015 | [13] -0.032 | [14] -0.021 | [15] -0.001 | [16] 0.03

VPS16 (UniProt Q9H269)
inactive: erlotinib 0.059 | [1] 0.026 | [2] 0.048 | [3] 0.024 | [4] -0.03 | [5] 0.048 | [6] -0.075 | [7] 0.03 | [8] 0.023 | IRAK-1-4 Inhibitor I 0.025 | ibrutinib 0.009 | [9] 0.017 | ralimetinib -0.012 | [10] -0.038 | [11] -0.014 | [12] -0.015 | [13] -0.029 | [14] 0.019 | [15] 0.031 | [16] 0

WIPI2 (UniProt Q9Y4P8)
inactive: erlotinib -0.006 | [1] -0.042 | [2] -0.009 | [3] 0.064 | [4] -0.037 | [5] -0.003 | [6] 0.035 | [7] -0.054 | [8] -0.047 | IRAK-1-4 Inhibitor I 0.021 | ibrutinib 0.047 | [9] 0.019 | ralimetinib 0.026 | [10] 0.018 | [11] 0.022 | [12] 0.042 | [13] -0.018 | [14] 0.006 | [15] -0.013 | [16] -0.003

WDR81 (UniProt Q562E7)
inactive: erlotinib 0.029 | [1] -0.028 | [2] 0.028 | [3] 0.012 | [4] 0 | [5] 0.03 | [6] -0.011 | [7] -0.019 | [8] 0.04 | IRAK-1-4 Inhibitor I 0.001 | ibrutinib 0.019 | [9] -0.004 | ralimetinib 0.023 | [10] -0.067 | [11] -0.002 | [12] 0.046 | [13] -0.025 | [14] -0.044 | [15] 0.026 | [16] 0.018

WDR41 (UniProt Q9HAD4)
inactive: erlotinib -0.071 | [1] -0.044 | [2] -0.021 | [3] 0.015 | [4] -0.027 | [5] -0.113 | [6] 0.031 | [7] -0.091 | [8] 0.049 | IRAK-1-4 Inhibitor I 0.029 | ibrutinib -0.163 | [9] -0.004 | ralimetinib 0.017 | [10] 0.088 | [11] -0.015 | [12] 0.03 | [13] -0.054 | [14] 0.164 | [15] -0.049 | [16] 0.015

VPS37B (UniProt Q9H9H4)
inactive: erlotinib -0.046 | [1] 0.078 | [2] 0.059 | [3] 0.002 | [4] -0.011 | [5] 0.031 | [6] 0 | [7] 0.043 | [8] 0.098 | IRAK-1-4 Inhibitor I -0.012 | ibrutinib 0.024 | [9] 0.014 | ralimetinib -0.055 | [10] 0.009 | [11] -0.028 | [12] 0 | [13] -0.008 | [14] 0.019 | [15] 0.012 | [16] 0.028

WTAP (UniProt Q15007)
inactive: erlotinib 0.005 | [1] 0.056 | [2] 0.024 | [3] 0.008 | [4] -0.005 | [5] 0.02 | [6] -0.019 | [7] 0.004 | [8] -0.023 | IRAK-1-4 Inhibitor I 0.002 | ibrutinib 0.004 | [9] 0.003 | ralimetinib 0.042 | [10] -0.04 | [11] -0.011 | [12] -0.008 | [13] -0.023 | [14] -0.025 | [15] 0.058 | [16] 0.026

VPS13A (UniProt Q96RL7)
inactive: erlotinib -0.02 | [1] -0.004 | [2] 0.055 | [3] 0.034 | [4] -0.074 | [5] 0.007 | [6] -0.008 | [7] -0.002 | [8] -0.118 | IRAK-1-4 Inhibitor I 0.01 | ibrutinib 0.011 | [9] -0.006 | ralimetinib 0.015 | [10] 0.02 | [11] 0.017 | [12] 0.233 | [13] 0.02 | [14] -0.053 | [15] 0.071 | [16] -0.024

WDR12 (UniProt Q9GZL7)
inactive: erlotinib -0.017 | [1] 0.013 | [2] 0.01 | [3] -0.02 | [4] -0.009 | [5] 0.012 | [6] 0.009 | [7] -0.012 | [8] 0.005 | IRAK-1-4 Inhibitor I 0 | ibrutinib 0 | [9] 0.004 | ralimetinib 0.048 | [10] 0.014 | [11] -0.005 | [12] -0.023 | [13] 0.011 | [14] -0.034 | [15] 0.005 | [16] -0.009

VMA21 (UniProt Q3ZAQ7)
inactive: erlotinib -0.008 | [1] -0.076 | [2] 0.239 | [3] 0.009 | [4] 0.054 | [5] -0.065 | [6] 0.038 | [7] -0.161 | [8] 0.02 | IRAK-1-4 Inhibitor I -0.006 | ibrutinib -0.065 | [9] -0.029 | ralimetinib 0.086 | [10] -0.071 | [11] 0.063 | [12] -0.141 | [13] -0.038 | [14] 0.085 | [15] 0.042 | [16] -0.002

VPS28 (UniProt Q9UK41)
inactive: erlotinib 0.707 | [1] -0.039 | [2] 0.004 | [3] -0.005 | [4] 0.041 | [5] 0.028 | [6] -0.036 | [7] -0.006 | [8] -0.018 | IRAK-1-4 Inhibitor I -0.036 | ibrutinib 0.109 | [9] -0.02 | ralimetinib 0.009 | [10] 0.046 | [11] -0.004 | [12] -0.005 | [13] 0.019 | [14] -0.092 | [15] 0.028 | [16] 0.019

WDR1 (UniProt O75083)
inactive: erlotinib -0.017 | [1] 0.05 | [2] 0 | [3] 0.008 | [4] 0.028 | [5] 0.005 | [6] 0.015 | [7] 0.001 | [8] -0.001 | IRAK-1-4 Inhibitor I -0.017 | ibrutinib 0.002 | [9] 0.007 | ralimetinib -0.013 | [10] 0.015 | [11] 0.009 | [12] -0.024 | [13] 0.022 | [14] -0.003 | [15] -0.012 | [16] 0.033

From the supplement of paper PMC10849652
